Assay results published in patent publication US10321684B2, “Use of 9-beta-D-adenosine to increase crop production” (The Regents of the University of California, priority 2009, dated 2019).

Test system: 'Fina Sodea' Clementine mandarin trees
Experiment: Adenosine by foliar spray (canopy application): fruit number, yield and value of mandarin trees
Type: in vivo
Conditions: based on 200 trees/acre
Experimental: This example describes the increase in the number and yield of commercially valuable fruit of Clementine mandarin trees achieved by canopy application of adenosine. Adenosine (9-beta-D-adenosine) obtained from Sigma Chemical Co. (Catalog No. A9251) was applied (25 mg/L in 250 gallons of water per acre; 23.66 g/acre) with a 400 psi handgun sprayer one time at maximum peel thickness, which marks the end of the cell division stage of citrus fruit development, to ‘Fina Sodea’ Clementine mandarin trees.

## Nc1ncnc2c1ncn2[C@@H]1O[C@H](CO)[C@@H](O)[C@H]1O [Adenosine, 9-beta-D-adenosine]
$3.50 per 11 kg box
  Fruit value (cumulative income), Small: 1497.80 US$/acre
$3.75 per 11 kg box
  Fruit value (cumulative income), Medium: 2522.40 US$/acre
$4.10 per 11 kg box
  Fruit value (cumulative income), Jumbo: 1149.50 a US$/acre
  Fruit value (cumulative income), Large: 2584.10 a US$/acre
  Fruit value (cumulative income), Mammoth: 262.10 US$/acre
Sum of mammoth, jumbo and large
  Fruit value (cumulative income), Ma + J + L: 3995.60 a US$/acre
Sum of small, medium, large, jumbo and mammoth
  Fruit value (cumulative income), Total: 8015.80 US$/acre
